Reference: PubChem BioAssay AID652272 (Drosophila RNAi Screening Center, 2013)
Purpose: 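Finding fly genes that regulate Hedgehog signal transduction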 (primary screen). Cells: Drosophila clone 8 (Cl8) cells. Reagent: long dsRNA against Drosophila genes. Read-out: 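Firefly light from a Hedgehog-responsive ptc promoter reporter and Renilla reference light, both read on a plate reader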. Reading the numbers: firefly Hh reporter signal: higher = more ptc reporter light; Renilla reference signal: higher = more Renilla control light. Rule for the call: 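Hit when the z-score averaged over two replicates is under -2 or over +3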. Meaning of the calls: active = hit: reporter lowered or raised; inactive = not a hit.
In all, the deposit lists about 21,000 reagents; below is an unselected part of those that have a named target and a result. In the full data, 503 (2.4%) got an active call. 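Raw plate light values, not normalised; calls rest on replicate z-scores that were not deposited; hits include reporter decreases as well as increases.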 A number with no mark means an inactive call. Names joined by + are all predicted targets of the reagent. Not stated in the record: the amount of reagent, the time to read-out.

gene	dsRNA	firefly Hh reporter signal, replicate 1	firefly Hh reporter signal, replicate 2	Renilla reference signal, replicate 1	Renilla reference signal, replicate 2
Wwox (WW domain containing oxidoreductase)	DRSC03030	2.08e5	1.04e5	7665	4917
nod (no distributive disjunction)	DRSC18900	3.81e5	1.75e5	21788	3517
nod (no distributive disjunction)	DRSC20356	1.06e5	86616	2516	2188
Rab9	DRSC03281	99009	44800	2743	4384
Zwilch	DRSC15376	1.01e5	1.22e5	3672	3564
pinta	DRSC14698	1.04e5	86602	4827	3728
CG8679	DRSC03109	86288	79578	2307	6336
chn (charlatan)	DRSC06086	1.87e5	83766	6022	753
bb8 (big bubble 8)	DRSC15578	5.26e5	74327	26811	2549
GstD5 (Glutathione S transferase D5)	DRSC16686	83605	1.17e5	3255	3222
CG33203	DRSC14874	1.02e5	92972	3062	2922
CG33203	DRSC14876	98188	1.48e5	3403	5046
CG33203	DRSC14877	1.65e5	2.00e5	5016	6376
FASN2 (Fatty acid synthase 2)	DRSC00167	5.72e5	1.96e5	30197	7873
FASN2 (Fatty acid synthase 2)	DRSC00610	89210	76553	3825	3068
Su(P) (Suppressor of ref(2)P sterility)	DRSC11291	1.17e5		3529	5997
CG7910	DRSC16341	87940	1.01e5	3064	3081
CG14797 + CG32809	DRSC18562	60626	2.11e5	1957	7904
fs(1)K10 (female sterile (1) K10)	DRSC18775	1.56e5	83299	3782	2912
net	DRSC00309	1.66e5	1.10e5	3797	2919
Ubc7 (Ubiquitin conjugating enzyme 7)	DRSC20299	76059	1.62e5	2441	6041
CG9986	DRSC16586	1.02e5	86261	2083	2411
CG12691	DRSC17880	74572	1.41e5	2273	5184
CG42676	DRSC08227	87653	66185	4793	3299
CG42676	DRSC08392	60268	40800	2272	3126
Ir48c (Ionotropic receptor 48c)	DRSC06154	65947	77020	1786	5475
sit (stuck in traffic)	DRSC15760	4.14e5	1.25e5	24294	3421
CG11703	DRSC14356	99568	79280	4297	3820
CG3631	DRSC15503	1.59e5	1.59e5	3195	6032
sd (scalloped)	DRSC20370	81200	1.66e5	3011	8409
ND-ACP	DRSC08724	76720	41184	2848	2929
CG10011	DRSC14174	77858	78743	1840	2049
CG42254 (retired record)	DRSC06194	51172	54304	996	3472
Jhbp5 (Juvenile hormone binding protein 5)	DRSC14240	65952	93073	1869	6408
CG7016	DRSC16174	6.44e5	1.41e5	33136	3987
Cdc14 (Cell division cycle 14)	DRSC03013	84128	40709	2130	5874
Lgr3 (Leucine-rich repeat-containing G protein-coupled receptor 3)	DRSC15704	4.70e5	1.23e5	24188	3557
Lgr3 (Leucine-rich repeat-containing G protein-coupled receptor 3)	DRSC15706	4.27e5	89189	21284	2413
CG33232 (retired record)	DRSC08187	80048	78342	3880	3462
CG33232 (retired record)	DRSC08495	1.13e5	41179	2417	3080
CG34112	DRSC12235	89283	95889	3216	5794
stas (Stasimon)	DRSC20104	1.80e5	1.95e5	4320	4301
Jheh2 (Juvenile hormone epoxide hydrolase 2)	DRSC06530	1.14e5	44391	2832	2400
PpY-55A (Protein phosphatase Y at 55A)	DRSC07513	44434	49907	1209	4168
nes (nessy)	DRSC11375	71995	1.10e5	2544	2631
Tim9a	DRSC19753	83762	3.45e5	2080	12283
CG30195	DRSC04155	1.07e5	63753	2736	6508
tbc (trabuco)	DRSC20540	62146	96289	1272	3980
CG18281	DRSC11742	1.60e5	1.17e5	5939	4572
vimar (visceral mesodermal armadillo-repeats)	DRSC05026	84247	46048	3328	1920
ATPsynGL (ATP synthase, subunit G-like)	DRSC03027	1.06e5	52086	2050	5602
CG7483	DRSC16249	1.69e5	2.48e5	6528	7069
CG6592	DRSC10669	43024	40678	4443	3128
CG34175	DRSC00424	1.06e5	99109	1798	7850
CG31883	DRSC02561	1.06e5	1.04e5	5050	4407
CG34007	DRSC01790	1.35e5	2.71e5	4048	12570
speck	DRSC04608	1.17e5	49114	4306	2135
